The text below walks through data of publication PMC10649126.

The subject of the data set is GST-AeHSFA2b (Actinidia eriantha). Kind of data set: EMSA. The settings on record: cold probe competition 0x-50x reduced the shift; Chemiluminescent EMSA Kit (Beyotime), manufacturer's instructions; pH and temperature not stated; recombinant protein; protein details: GST (pGEX-4T-1, N-terminal by vector). On the technique in general: In EMSA bound probe runs differently from free probe, usually more slowly.

The exact form of at least one protein or probe is not confirmed.

For “GAGGAAACTTGAAGCTTCAAGAGGCGGT (double strand) [AeRFS4 promoter HSE probe (AeHSFA2b-EMSA-probe)]”, the binding result was “binds”.
